No constants are given. Whether binding was seen depends on the method and setting. In cells and extracts the contact can be indirect. Some results given as binding are weak or reduced against the parent protein; the word gives no strength.
Tests used:
[1] = target: GST-C2 (purified C2 domain of WWP2) (human) (UniProt O00308); test: pull-down; GST-fusion proteins on Glutathione Sepharose 4B incubated with 35S-labeled in vitro transcribed and translated Cdh1 in NETN buffer (20 mM Tris pH 8.0, 100 mM NaCl, 1 mM EDTA, 0.5% NP-40), 3-4 h at 4 °C; autoradiography; only the target purified
GST-WWP2 (human) = GST-WWP2 (human) (UniProt O00308); test: as above
Flag-NEDD4L = Flag-NEDD4L (UniProt Q96PU5); test: co-IP; 293T cells transfected with Flag-, HA- or Myc-tagged constructs; 36 h after transfection 10 μM MG132 (10 h) before collecting; lysis in EBC buffer (50 mM Tris pH 7.5, 120 mM NaCl, 0.5% NP-40), washes in NETN buffer; for the WWP2 domains with and without added Cdh1
Flag-WWP1 = Flag-WWP1 (UniProt Q9H0M0); test: as above
Flag-WWP2 (human) = Flag-WWP2 (human) (UniProt O00308); test: as above
[2] = target: Flag-WWP2 C2 domain (truncation mutant) (human) (UniProt O00308); test: as above
[3] = target: Flag-WWP2 HECT domain (truncation mutant) (human) (UniProt O00308); test: as above

Sequences of proteins named here, by UniProt entry; tags and fusion partners are left off. A change or cut given only in a name is not applied to a line headed by its entry. Residues count along the entry.
UniProt O00308: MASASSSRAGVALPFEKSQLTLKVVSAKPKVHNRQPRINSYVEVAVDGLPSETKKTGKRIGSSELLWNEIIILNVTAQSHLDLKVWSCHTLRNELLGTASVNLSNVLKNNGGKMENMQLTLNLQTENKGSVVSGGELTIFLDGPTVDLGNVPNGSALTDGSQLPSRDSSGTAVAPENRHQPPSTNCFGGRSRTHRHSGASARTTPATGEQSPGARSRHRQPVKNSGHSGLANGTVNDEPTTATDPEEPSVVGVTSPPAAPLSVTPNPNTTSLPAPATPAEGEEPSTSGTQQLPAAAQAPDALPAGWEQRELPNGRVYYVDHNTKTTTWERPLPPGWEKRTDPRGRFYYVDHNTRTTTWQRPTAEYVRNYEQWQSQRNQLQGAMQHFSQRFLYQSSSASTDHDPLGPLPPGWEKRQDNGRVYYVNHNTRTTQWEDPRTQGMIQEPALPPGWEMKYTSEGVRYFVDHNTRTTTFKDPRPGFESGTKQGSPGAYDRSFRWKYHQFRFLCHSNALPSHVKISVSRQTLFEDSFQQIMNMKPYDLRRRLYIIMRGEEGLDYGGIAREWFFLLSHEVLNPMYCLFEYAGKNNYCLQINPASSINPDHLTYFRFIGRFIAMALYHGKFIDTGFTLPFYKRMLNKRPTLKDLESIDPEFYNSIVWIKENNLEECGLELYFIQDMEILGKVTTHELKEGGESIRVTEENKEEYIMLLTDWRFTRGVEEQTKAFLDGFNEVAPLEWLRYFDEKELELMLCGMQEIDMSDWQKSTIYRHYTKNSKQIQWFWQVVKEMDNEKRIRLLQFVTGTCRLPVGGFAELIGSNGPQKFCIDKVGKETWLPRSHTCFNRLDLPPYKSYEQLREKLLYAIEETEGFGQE
Flag-WWP2 C2 domain (truncation mutant): residues 1-117 of O00308
Flag-WWP2 HECT domain (truncation mutant): residues 536-870 of O00308
UniProt Q96PU5: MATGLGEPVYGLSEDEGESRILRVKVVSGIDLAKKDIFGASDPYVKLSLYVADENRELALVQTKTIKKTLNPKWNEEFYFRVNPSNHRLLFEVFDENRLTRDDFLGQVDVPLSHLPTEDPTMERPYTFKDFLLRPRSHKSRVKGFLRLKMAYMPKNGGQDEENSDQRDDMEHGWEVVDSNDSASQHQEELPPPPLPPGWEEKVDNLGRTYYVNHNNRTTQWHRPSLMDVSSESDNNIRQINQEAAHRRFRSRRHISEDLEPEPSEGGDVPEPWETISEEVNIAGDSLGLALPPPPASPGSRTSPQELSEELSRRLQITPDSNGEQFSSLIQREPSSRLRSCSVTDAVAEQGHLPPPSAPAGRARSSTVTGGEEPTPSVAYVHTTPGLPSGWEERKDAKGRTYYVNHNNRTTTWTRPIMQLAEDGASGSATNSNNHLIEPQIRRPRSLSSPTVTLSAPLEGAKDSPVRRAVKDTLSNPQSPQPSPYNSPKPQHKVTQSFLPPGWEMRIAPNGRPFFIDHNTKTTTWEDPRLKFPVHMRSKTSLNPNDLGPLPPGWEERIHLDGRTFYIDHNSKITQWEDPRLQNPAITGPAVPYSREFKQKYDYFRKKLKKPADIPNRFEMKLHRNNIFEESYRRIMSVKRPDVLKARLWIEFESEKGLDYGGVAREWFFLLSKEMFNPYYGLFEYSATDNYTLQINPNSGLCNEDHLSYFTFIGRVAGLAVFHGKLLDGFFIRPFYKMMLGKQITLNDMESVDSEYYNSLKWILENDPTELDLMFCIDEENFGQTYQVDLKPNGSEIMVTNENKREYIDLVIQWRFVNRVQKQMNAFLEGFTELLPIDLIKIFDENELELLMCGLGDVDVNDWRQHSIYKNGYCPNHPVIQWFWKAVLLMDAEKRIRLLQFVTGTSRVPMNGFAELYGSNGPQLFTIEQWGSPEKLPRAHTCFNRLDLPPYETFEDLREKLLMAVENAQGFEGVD
UniProt Q9UM11: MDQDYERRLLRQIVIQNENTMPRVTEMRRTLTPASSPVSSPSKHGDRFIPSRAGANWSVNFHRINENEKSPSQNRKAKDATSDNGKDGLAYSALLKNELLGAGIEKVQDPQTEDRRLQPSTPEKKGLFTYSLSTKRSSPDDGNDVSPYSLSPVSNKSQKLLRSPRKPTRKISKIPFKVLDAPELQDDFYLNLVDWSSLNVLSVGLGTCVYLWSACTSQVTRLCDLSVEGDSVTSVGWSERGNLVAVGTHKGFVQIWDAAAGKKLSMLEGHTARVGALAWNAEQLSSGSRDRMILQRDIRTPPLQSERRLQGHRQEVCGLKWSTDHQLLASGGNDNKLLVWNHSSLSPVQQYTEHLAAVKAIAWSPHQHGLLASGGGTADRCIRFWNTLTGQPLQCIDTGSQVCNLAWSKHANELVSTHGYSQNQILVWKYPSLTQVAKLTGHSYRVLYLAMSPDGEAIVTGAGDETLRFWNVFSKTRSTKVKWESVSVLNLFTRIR

binding [1] | binding (GST-WWP2 (human)) | binding (Flag-NEDD4L) | binding (Flag-WWP1) | binding (Flag-WWP2 (human)) | binding [2] | binding [3] | Substance
binds | binds | – | – | – | – | – | 35S-labeled in vitro transcribed and translated Cdh1 (from UniProt Q9UM11 1-496)
– | – | binds | binds | binds | binds | binds | HA-Cdh1 (from UniProt Q9UM11 1-496)
